# Data from the supplement of paper PMC10849652.
# By UniProt entry, the sequences of proteins in these tests, tags left out. Where a name states a change or a piece, a line headed by the entry shows the natural chain unless it says otherwise.
# UniProt Q13868, whole entry, looked up: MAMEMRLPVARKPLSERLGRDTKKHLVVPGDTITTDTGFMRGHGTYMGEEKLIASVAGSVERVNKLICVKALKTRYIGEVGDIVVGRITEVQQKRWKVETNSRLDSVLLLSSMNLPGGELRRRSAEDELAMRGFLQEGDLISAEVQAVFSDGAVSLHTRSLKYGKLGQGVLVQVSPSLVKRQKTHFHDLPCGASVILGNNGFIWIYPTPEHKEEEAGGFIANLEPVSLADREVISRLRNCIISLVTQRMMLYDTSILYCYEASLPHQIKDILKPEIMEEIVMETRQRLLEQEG
# UniProt Q8IYI6: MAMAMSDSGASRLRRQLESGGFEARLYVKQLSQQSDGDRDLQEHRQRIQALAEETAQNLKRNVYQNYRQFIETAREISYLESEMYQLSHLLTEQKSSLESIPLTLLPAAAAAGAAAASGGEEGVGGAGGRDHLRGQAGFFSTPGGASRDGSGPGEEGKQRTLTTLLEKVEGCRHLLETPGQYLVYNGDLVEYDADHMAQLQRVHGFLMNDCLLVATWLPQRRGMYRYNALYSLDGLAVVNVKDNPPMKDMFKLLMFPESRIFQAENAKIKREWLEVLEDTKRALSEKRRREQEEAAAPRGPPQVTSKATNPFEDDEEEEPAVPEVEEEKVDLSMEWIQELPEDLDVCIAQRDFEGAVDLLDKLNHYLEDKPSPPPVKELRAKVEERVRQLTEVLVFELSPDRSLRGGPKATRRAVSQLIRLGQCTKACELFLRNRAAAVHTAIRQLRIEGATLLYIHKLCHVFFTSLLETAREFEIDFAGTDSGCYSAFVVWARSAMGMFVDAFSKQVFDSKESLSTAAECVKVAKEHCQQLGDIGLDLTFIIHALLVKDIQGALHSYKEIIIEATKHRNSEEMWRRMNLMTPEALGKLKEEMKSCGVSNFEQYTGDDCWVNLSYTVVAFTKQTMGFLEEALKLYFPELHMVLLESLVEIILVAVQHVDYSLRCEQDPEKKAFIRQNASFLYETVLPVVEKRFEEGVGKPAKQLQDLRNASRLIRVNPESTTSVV
# UniProt Q9NUQ9: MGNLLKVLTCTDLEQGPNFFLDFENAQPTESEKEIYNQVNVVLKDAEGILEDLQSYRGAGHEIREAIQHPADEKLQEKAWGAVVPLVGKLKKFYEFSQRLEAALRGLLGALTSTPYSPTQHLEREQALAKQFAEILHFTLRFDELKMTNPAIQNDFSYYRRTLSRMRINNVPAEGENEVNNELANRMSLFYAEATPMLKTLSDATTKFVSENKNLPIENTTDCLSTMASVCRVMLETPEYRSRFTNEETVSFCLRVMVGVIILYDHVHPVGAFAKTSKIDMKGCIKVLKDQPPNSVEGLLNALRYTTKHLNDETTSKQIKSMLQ
# UniProt Q8TAG9: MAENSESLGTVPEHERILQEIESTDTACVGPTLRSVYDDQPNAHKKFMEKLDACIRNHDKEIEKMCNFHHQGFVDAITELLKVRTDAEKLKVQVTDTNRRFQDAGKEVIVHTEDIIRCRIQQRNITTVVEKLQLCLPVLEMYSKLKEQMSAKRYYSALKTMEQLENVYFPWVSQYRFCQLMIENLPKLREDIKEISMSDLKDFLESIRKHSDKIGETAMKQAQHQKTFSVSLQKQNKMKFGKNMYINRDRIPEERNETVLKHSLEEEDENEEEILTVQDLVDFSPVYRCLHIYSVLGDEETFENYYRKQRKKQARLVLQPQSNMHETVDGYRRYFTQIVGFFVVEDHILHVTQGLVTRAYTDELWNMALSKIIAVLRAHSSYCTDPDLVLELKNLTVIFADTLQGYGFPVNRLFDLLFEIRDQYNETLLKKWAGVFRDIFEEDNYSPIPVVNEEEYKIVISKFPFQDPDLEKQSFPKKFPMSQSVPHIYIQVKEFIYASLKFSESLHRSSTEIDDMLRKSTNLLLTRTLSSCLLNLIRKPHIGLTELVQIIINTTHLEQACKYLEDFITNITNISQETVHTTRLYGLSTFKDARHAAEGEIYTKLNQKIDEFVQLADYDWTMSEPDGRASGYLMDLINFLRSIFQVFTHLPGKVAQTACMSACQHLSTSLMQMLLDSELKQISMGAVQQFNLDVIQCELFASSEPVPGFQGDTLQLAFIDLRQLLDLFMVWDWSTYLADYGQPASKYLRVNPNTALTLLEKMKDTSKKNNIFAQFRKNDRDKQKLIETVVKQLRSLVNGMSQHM
# UniProt Q96DF8: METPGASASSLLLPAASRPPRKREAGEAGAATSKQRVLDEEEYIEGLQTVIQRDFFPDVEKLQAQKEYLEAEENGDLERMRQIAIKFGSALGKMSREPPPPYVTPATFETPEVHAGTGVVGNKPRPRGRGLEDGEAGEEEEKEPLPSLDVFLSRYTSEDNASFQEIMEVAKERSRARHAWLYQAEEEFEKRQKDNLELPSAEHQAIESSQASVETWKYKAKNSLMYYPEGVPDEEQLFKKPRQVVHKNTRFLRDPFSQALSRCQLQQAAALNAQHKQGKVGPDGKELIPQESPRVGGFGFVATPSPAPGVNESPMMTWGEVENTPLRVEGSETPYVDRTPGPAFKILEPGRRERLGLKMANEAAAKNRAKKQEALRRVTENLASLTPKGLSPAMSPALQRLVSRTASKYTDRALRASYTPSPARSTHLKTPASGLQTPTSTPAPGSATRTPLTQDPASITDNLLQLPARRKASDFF
# UniProt Q96A65: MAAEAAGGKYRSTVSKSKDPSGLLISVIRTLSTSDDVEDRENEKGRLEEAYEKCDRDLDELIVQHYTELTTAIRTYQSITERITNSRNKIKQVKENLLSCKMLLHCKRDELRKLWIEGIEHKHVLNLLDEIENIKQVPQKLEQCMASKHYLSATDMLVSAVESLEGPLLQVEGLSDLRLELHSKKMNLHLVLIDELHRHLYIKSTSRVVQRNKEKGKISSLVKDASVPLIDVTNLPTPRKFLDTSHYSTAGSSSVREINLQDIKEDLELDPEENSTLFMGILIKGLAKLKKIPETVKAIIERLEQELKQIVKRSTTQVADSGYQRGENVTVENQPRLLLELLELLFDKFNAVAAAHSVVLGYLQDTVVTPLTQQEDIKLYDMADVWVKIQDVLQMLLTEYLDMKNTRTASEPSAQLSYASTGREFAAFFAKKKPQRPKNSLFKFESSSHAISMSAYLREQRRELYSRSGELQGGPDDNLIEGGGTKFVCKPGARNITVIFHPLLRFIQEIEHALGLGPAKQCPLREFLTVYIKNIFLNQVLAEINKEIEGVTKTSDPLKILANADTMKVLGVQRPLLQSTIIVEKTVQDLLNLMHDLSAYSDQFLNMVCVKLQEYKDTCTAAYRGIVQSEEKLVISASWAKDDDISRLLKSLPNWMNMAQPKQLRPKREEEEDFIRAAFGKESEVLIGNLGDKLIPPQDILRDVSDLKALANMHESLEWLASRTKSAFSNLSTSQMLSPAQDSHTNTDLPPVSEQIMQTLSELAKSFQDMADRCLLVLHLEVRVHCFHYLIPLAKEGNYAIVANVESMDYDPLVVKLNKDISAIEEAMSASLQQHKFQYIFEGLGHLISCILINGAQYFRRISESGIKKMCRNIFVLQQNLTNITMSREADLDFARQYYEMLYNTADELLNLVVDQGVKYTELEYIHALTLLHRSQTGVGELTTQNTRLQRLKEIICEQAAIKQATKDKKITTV
# UniProt Q96B26, whole entry, looked up: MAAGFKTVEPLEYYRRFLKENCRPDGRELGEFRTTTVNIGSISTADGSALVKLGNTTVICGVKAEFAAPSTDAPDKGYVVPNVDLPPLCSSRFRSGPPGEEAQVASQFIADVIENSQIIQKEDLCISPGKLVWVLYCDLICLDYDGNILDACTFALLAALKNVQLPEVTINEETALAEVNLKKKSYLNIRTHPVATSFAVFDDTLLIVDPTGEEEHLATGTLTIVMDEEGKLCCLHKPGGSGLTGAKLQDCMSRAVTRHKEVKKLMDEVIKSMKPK
# UniProt Q5W0V3: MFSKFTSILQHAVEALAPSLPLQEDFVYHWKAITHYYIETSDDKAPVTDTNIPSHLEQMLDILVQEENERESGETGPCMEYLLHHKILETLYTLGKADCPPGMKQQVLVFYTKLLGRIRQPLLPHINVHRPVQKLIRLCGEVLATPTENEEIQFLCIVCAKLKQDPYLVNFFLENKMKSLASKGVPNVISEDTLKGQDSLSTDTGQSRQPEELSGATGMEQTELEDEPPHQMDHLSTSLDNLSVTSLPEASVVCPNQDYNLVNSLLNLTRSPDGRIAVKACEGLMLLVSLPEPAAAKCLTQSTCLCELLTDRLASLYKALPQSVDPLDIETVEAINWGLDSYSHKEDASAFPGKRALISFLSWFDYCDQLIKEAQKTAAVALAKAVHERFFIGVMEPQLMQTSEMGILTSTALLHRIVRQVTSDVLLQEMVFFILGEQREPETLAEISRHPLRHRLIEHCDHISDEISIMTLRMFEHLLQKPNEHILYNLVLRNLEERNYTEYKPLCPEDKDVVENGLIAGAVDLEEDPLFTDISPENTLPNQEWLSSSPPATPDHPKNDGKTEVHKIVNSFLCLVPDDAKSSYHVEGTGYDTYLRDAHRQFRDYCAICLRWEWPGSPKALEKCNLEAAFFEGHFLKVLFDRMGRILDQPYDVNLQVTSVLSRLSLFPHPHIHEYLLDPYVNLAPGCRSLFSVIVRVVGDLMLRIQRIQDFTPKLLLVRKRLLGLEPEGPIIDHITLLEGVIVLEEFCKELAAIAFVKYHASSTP
# UniProt Q8N612: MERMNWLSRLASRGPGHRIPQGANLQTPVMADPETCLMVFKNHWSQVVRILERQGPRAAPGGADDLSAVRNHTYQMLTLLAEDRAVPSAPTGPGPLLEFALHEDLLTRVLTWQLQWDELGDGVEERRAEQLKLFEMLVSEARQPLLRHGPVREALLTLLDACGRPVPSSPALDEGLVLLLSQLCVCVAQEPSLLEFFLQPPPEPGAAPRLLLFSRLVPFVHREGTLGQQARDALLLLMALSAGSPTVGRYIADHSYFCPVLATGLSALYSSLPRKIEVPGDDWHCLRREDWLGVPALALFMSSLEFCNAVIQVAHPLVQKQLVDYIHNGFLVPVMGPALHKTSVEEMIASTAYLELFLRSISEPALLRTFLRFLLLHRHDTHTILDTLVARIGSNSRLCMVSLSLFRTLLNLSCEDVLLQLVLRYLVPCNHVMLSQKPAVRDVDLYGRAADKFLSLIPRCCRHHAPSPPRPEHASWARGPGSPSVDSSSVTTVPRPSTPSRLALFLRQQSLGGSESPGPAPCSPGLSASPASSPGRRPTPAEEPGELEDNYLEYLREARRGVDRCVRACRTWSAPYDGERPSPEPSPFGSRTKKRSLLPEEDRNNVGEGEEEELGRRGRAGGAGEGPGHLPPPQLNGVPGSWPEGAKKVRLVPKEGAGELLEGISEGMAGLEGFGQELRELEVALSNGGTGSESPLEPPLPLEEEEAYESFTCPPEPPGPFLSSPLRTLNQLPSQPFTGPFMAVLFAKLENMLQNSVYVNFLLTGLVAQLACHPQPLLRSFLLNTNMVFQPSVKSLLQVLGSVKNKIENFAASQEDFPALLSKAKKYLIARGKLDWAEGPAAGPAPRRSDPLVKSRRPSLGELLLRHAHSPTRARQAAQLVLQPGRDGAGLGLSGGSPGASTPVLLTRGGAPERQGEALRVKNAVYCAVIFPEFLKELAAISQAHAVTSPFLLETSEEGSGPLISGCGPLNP
# UniProt Q9HBU6: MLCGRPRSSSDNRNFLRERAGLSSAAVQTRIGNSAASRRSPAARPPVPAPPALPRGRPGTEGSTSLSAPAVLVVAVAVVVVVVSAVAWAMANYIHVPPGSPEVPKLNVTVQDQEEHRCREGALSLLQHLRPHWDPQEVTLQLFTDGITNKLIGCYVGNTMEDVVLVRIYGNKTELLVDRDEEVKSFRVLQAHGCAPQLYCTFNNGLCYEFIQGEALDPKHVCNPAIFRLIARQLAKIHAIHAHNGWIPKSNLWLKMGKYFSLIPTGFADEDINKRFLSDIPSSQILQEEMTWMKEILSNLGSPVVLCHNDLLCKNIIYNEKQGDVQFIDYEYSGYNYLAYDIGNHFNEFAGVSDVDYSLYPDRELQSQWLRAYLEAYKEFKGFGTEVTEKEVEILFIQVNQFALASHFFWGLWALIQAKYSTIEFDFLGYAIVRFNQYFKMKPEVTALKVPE
# UniProt Q8IXS8: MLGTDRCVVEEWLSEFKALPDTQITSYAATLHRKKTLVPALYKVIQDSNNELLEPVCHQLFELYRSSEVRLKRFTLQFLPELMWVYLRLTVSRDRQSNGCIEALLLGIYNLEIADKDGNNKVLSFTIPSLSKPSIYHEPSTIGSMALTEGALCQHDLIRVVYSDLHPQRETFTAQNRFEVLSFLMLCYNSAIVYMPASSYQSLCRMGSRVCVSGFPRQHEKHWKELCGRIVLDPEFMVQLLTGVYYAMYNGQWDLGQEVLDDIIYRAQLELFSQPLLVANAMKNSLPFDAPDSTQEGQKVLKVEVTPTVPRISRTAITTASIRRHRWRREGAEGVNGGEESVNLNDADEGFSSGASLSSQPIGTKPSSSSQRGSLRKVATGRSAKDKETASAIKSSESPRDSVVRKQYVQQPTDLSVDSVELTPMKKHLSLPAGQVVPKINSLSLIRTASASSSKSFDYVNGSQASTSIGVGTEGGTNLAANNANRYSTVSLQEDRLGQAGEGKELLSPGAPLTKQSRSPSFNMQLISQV
# This is one part of the list.
# Compound: Cc1sc2c(c1C)C(c1ccc(Cl)cc1)=N[C@@H](CC(=O)OC(C)(C)C)c1nnc(C)n1-2
# Assay: log2 fold change, soluble protein after heating vs DMSO (PISA); higher = thermal stabilisation; K562 lysate, 10 uM; active = over 0.2 and 3.5 SD of the protein, either way, in both replicates (recomputed)
# Method in brief: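 K562 pellets were dounce-homogenised in PBS pH 7.4 with 1 mM MgCl2, and the crude extract at 1 mg/mL protein was treated with 10 μM compound for 30 min. Aliquots were heated for 3 min across 48°C-58°C, pooled, and brought to 0.5% NP-40 at 4°C; soluble protein was the supernatant after 21,000xg for 90 min. Soluble protein was quantified by TMTpro 16plex LC-MS/MS with channel sums equalised, and reported as log2 fold change in thermal stability against DMSO controls, with values from duplicates.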
row,Target,log2 fold change
1,FAM76A isoform 3 (UniProt Q8TAV0),inactive: -0.023
2,EXOSC2 (UniProt Q13868),inactive: -0.011
3,EXOC8 (UniProt Q8IYI6),inactive: -0.021
4,EXOC2 (UniProt Q96KP1),inactive: -0.019
5,FAM49B (UniProt Q9NUQ9),inactive: -0.014
6,ERICH1 (UniProt Q86X53),inactive: -0.038
7,EXOC6 (UniProt Q8TAG9),inactive: 0.037
8,FAM114A1 (UniProt Q8IWE2),inactive: 0.032
9,ESS2 (UniProt Q96DF8),inactive: -0.017
10,FAM32A (UniProt Q9Y421),inactive: -0.007
11,EZH2 isoform 2 (UniProt Q15910),inactive: -0.006
12,EXOG (UniProt Q9Y2C4),inactive: 0.023
13,EXOC4 (UniProt Q96A65),inactive: 0.063
14,FAM210A (UniProt Q96ND0),inactive: -0.002
15,FAM172A (UniProt Q8WUF8),inactive: -0.157
16,EXOSC8 (UniProt Q96B26),inactive: -0.061
17,ESF1 (UniProt Q9H501),inactive: 0.037

# At a glance, some entries already given.
row,Target,log2 fold change
14,FAM210A (UniProt Q96ND0),inactive: -0.002
15,FAM172A (UniProt Q8WUF8),inactive: -0.157

# (further entries)

row,Target,log2 fold change
1,EVL isoform 2 (UniProt Q9UI08),inactive: -0.132
2,FAM160B1 (UniProt Q5W0V3),inactive: 0.034
3,FAM78A (UniProt Q5JUQ0),inactive: -0.129
4,FAM120B (UniProt Q96EK7),inactive: -0.016
5,FAM117A (UniProt Q9C073),inactive: 0.013
6,FAM160A2 isoform 2 (UniProt Q8N612),inactive: -0.068
7,ETNK1 (UniProt Q9HBU6),inactive: -0.045
8,ESYT1 isoform 2 (UniProt Q9BSJ8),inactive: 0.022
9,ESPL1 (UniProt Q14674),inactive: 0.136
10,FADD (UniProt Q13158),inactive: 0.028
11,FAM222B (UniProt Q8WU58),inactive: -0.033
12,FAM118B (UniProt Q9BPY3),inactive: -0.018
13,FAF2 (UniProt Q96CS3),inactive: 0.049
14,FAHD2B (UniProt Q6P2I3),inactive: -0.161
15,FAM3A (UniProt P98173),inactive: 0.014
16,FAM126B (UniProt Q8IXS8),inactive: 0.113
17,FAM136A (UniProt Q96C01),inactive: -0.048
